# Results deposited as PubChem BioAssay AID504805 (Drosophila RNAi Screening Center, 2011)
# Purpose: 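Fly genes required for export of polyadenylated mRNA from the nucleus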 (primary screen)
# System: Drosophila S2R+ cells
# Knock-down reagent: long dsRNA against Drosophila genes, 0.25 µg dsRNA per well
# Timing: 4 days
# Measured: 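Microscope images of cells stained for poly(A) RNA with a fluorescent oligo-dT probe and for DNA, assessed visually, with a phenotype description given for each replicate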
# The reagents shown are a selection, not the whole library. 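Phenotypes are words from visual inspection of images, not measured scores.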 Names joined by + are all predicted targets of the reagent.
Gene,amplicon,"phenotype, replicate 1","phenotype, replicate 2"
bru2 (GeneID 250811),DRSC01247,poly(A) RNA held back in the nucleus,
Cdk9 (GeneID 37586),DRSC04601,poly(A) RNA held back in the nucleus,
CCT7 (GeneID 41054),DRSC16410,poly(A) RNA held back in the nucleus,
LanA (GeneID 38723),DRSC11207,poly(A) RNA held back in the nucleus,
RunxA (GeneID 4379817),DRSC20400,poly(A) RNA held back in the nucleus,
CG3587 (GeneID 31160),DRSC18541,poly(A) RNA held back in the nucleus,
Tbc1d22 (GeneID 42498),DRSC15867,poly(A) RNA held back in the nucleus,
Ets65A (GeneID 38700),DRSC11164,poly(A) RNA held back in the nucleus,
CG3123 (GeneID 33478),DRSC00570,poly(A) RNA held back in the nucleus,
chp (GeneID 43690),DRSC16925,poly(A) RNA held back in the nucleus,
JIL-1 (GeneID 39241),DRSC11200,poly(A) RNA held back in the nucleus,
CG9119 (GeneID 38124),DRSC08620,poly(A) RNA held back in the nucleus,
pcx (GeneID 31204),DRSC18188,poly(A) RNA held back in the nucleus,
pcx (GeneID 31204),DRSC18190,poly(A) RNA held back in the nucleus,
CG13130 (retired record) (GeneID 50439),DRSC02226,poly(A) RNA held back in the nucleus,
Lim1 (GeneID 31813),DRSC18677,poly(A) RNA held back in the nucleus,
rdgA (GeneID 31826),DRSC18036,poly(A) RNA held back in the nucleus,
CG32572 (GeneID 32657),DRSC19526,poly(A) RNA held back in the nucleus,
CG11858 (GeneID 43044),DRSC14412,poly(A) RNA held back in the nucleus,
seq (GeneID 3772396),DRSC06863,poly(A) RNA held back in the nucleus,
CG12075 (GeneID 31815),DRSC17801,poly(A) RNA held back in the nucleus,
zuc (GeneID 34609),DRSC02160,poly(A) RNA held back in the nucleus,
RpS26 (GeneID 35098),DRSC03420,poly(A) RNA held back in the nucleus,poly(A) RNA held back in the nucleus
simj (GeneID 39212),DRSC10942,poly(A) RNA held back in the nucleus,
Nf1 (GeneID 43149),DRSC16758,poly(A) RNA held back in the nucleus,
CG5810 (GeneID 42513),DRSC21921,poly(A) RNA held back in the nucleus,
Hsp23 (GeneID 39077),DRSC11188,poly(A) RNA held back in the nucleus,
CG12688 (retired record) (GeneID 31378),DRSC17877,poly(A) RNA held back in the nucleus,
Rrp47 (GeneID 32558),DRSC20124,poly(A) RNA held back in the nucleus,
Ice1 (GeneID 37701),DRSC04191,poly(A) RNA held back in the nucleus,
CG7214 (GeneID 34053),DRSC03028,poly(A) RNA held back in the nucleus,poly(A) RNA held back in the nucleus
CG5404 (GeneID 41901),DRSC15793,poly(A) RNA held back in the nucleus,
mew (GeneID 32275),DRSC20352,poly(A) RNA held back in the nucleus,
CG12934 (GeneID 36124),DRSC06247,poly(A) RNA held back in the nucleus,
glob3 (GeneID 40726),DRSC12261,poly(A) RNA held back in the nucleus,
dan (GeneID 43023),DRSC14406,poly(A) RNA held back in the nucleus,
ImpE1 (GeneID 45879),DRSC11196,poly(A) RNA held back in the nucleus,
ASPP (GeneID 37422),DRSC04305,poly(A) RNA held back in the nucleus,poly(A) RNA held back in the nucleus
Cdk12 (GeneID 40385),DRSC11836,poly(A) RNA held back in the nucleus,
CG12237 (GeneID 32967),DRSC19449,poly(A) RNA held back in the nucleus,
pygo (GeneID 43718),DRSC14322,poly(A) RNA held back in the nucleus,
CG1409 (GeneID 31689),DRSC17910,poly(A) RNA held back in the nucleus,
CG8006 (GeneID 38920),DRSC10949,poly(A) RNA held back in the nucleus,
CG4440 (GeneID 50458),DRSC02747,poly(A) RNA held back in the nucleus,
prom (GeneID 246493),DRSC22088,poly(A) RNA held back in the nucleus,
Trpml + CG42638,DRSC11032,poly(A) RNA held back in the nucleus,
Lim3 (GeneID 35184),DRSC22650,poly(A) RNA held back in the nucleus,
ths (GeneID 36258),DRSC06153,poly(A) RNA held back in the nucleus,poly(A) RNA held back in the nucleus

Next part (7 carried over from the part before).
Gene,amplicon,"phenotype, replicate 1","phenotype, replicate 2"
CG1409 (GeneID 31689),DRSC17910,poly(A) RNA held back in the nucleus,
CG8006 (GeneID 38920),DRSC10949,poly(A) RNA held back in the nucleus,
CG4440 (GeneID 50458),DRSC02747,poly(A) RNA held back in the nucleus,
prom (GeneID 246493),DRSC22088,poly(A) RNA held back in the nucleus,
Trpml + CG42638,DRSC11032,poly(A) RNA held back in the nucleus,
Lim3 (GeneID 35184),DRSC22650,poly(A) RNA held back in the nucleus,
ths (GeneID 36258),DRSC06153,poly(A) RNA held back in the nucleus,poly(A) RNA held back in the nucleus
CG31211 (GeneID 41443),DRSC14953,poly(A) RNA held back in the nucleus,
RnrS (GeneID 36280),DRSC07533,poly(A) RNA held back in the nucleus,poly(A) RNA held back in the nucleus
Nepl16 (GeneID 43014),DRSC14650,poly(A) RNA held back in the nucleus,
hoip (GeneID 44173),DRSC03546,rounded cells with spots of RNA in the cytoplasm,rounded cells with spots of RNA in the cytoplasm
CG14632 (retired record) (GeneID 31035),DRSC17942,poly(A) RNA held back in the nucleus,
Ctu1 (GeneID 35920),DRSC07069,poly(A) RNA held back in the nucleus,
CG12643 (GeneID 50416),DRSC17849,poly(A) RNA held back in the nucleus,
CG6656 (GeneID 42576),DRSC16085,poly(A) RNA held back in the nucleus,
CG10993 (GeneID 32344),DRSC19362,poly(A) RNA held back in the nucleus,
CG1138 (GeneID 40805),DRSC12530,poly(A) RNA held back in the nucleus,
Syt1 (GeneID 33473),DRSC00156,poly(A) RNA held back in the nucleus,
Syt1 (GeneID 33473),DRSC00158,poly(A) RNA held back in the nucleus,
CG7953 (GeneID 34801),DRSC01902,poly(A) RNA held back in the nucleus,
CG14615 (GeneID 33129),DRSC20627,poly(A) RNA held back in the nucleus,
SK (GeneID 31456),DRSC17888,poly(A) RNA held back in the nucleus,
CG32267 (GeneID 317946),DRSC21561,poly(A) RNA held back in the nucleus,
CG17684 (GeneID 3355066),DRSC21166,poly(A) RNA held back in the nucleus,
CG5968 (GeneID 34986),DRSC02916,poly(A) RNA held back in the nucleus,
peng (GeneID 33112),DRSC20583,poly(A) RNA held back in the nucleus,
Hr78 (GeneID 40378),DRSC11866,poly(A) RNA held back in the nucleus,
Os-C (GeneID 40942),DRSC16778,poly(A) RNA held back in the nucleus,
CG1304 (GeneID 33074),DRSC20494,poly(A) RNA held back in the nucleus,
CG42633 (GeneID 8674052),DRSC16061,poly(A) RNA held back in the nucleus,
GlcAT-P (GeneID 39262),DRSC10603,poly(A) RNA held back in the nucleus,
KP78a + KP78b,DRSC23338,poly(A) RNA held back in the nucleus,
CG6443 (GeneID 34477),DRSC02958,poly(A) RNA held back in the nucleus,
CG17597 (GeneID 35140),DRSC02630,poly(A) RNA held back in the nucleus,
CG12096 (GeneID 32269),DRSC21692,poly(A) RNA held back in the nucleus,
Vps24 (GeneID 40542),DRSC12332,poly(A) RNA held back in the nucleus,
Achl (GeneID 36605),DRSC06665,poly(A) RNA held back in the nucleus,
Cyp313a4 (GeneID 41563),DRSC16627,poly(A) RNA held back in the nucleus,
CG10384 (GeneID 37567),DRSC04067,,poly(A) RNA held back in the nucleus
Paip2 (GeneID 41591),DRSC14504,poly(A) RNA held back in the nucleus,
mTerf3 (GeneID 40279),DRSC11759,poly(A) RNA held back in the nucleus,
Ts (GeneID 33499),DRSC22168,poly(A) RNA held back in the nucleus,
Npc2a (GeneID 33374),DRSC00698,poly(A) RNA held back in the nucleus,
Ten-m (GeneID 40464),DRSC11882,poly(A) RNA held back in the nucleus,
CG43347 (GeneID 31991),DRSC18446,poly(A) RNA held back in the nucleus,
CG43347 (GeneID 31991),DRSC22656,poly(A) RNA held back in the nucleus,
Ipk2 (GeneID 33236),DRSC00357,poly(A) RNA held back in the nucleus,
Kebab (GeneID 48440),DRSC00827,poly(A) RNA held back in the nucleus,
Sodq (GeneID 43133),DRSC15924,poly(A) RNA held back in the nucleus,
Nxt1 (GeneID 37769),DRSC04630,poly(A) RNA held back in the nucleus,poly(A) RNA held back in the nucleus
CG15345 (retired record) (GeneID 50402),DRSC18030,poly(A) RNA held back in the nucleus,
exp (GeneID 36276),DRSC06313,poly(A) RNA held back in the nucleus,poly(A) RNA held back in the nucleus
RpS12 (GeneID 39480),DRSC11270,poly(A) RNA held back in the nucleus,
IleRS (GeneID 45785),DRSC11667,poly(A) RNA held back in the nucleus,
Su(z)2 (GeneID 36432),DRSC07558,poly(A) RNA held back in the nucleus,poly(A) RNA held back in the nucleus
CG5377 (GeneID 42645),DRSC15783,poly(A) RNA held back in the nucleus,
Hk (GeneID 31955),DRSC18674,poly(A) RNA held back in the nucleus,
Nlg4 (GeneID 42402),DRSC15701,poly(A) RNA held back in the nucleus,
CG31787 (GeneID 318941),DRSC01632,poly(A) RNA held back in the nucleus,
CG3184 (GeneID 31608),DRSC18289,poly(A) RNA held back in the nucleus,
CG13062 (GeneID 39799),DRSC09945,poly(A) RNA held back in the nucleus,
Cse1 (GeneID 35016),DRSC03287,poly(A) RNA held back in the nucleus,poly(A) RNA held back in the nucleus
mtm (GeneID 33845),DRSC03576,poly(A) RNA held back in the nucleus,
Srp54 (GeneID 34312),DRSC03442,poly(A) RNA held back in the nucleus,
